Measurements: patent US20260062447A1 (UNIVERSITY OF SOUTHAMPTON, priority 2022, published 2026)

Assay: general procedure: Fmoc solid-phase peptide synthesis; Wang resin pre-loaded with Fmoc amino acids (Fmoc-Leu-Wang resin); 2-chlorotrityl chloride resin; DIC / Oxyma Pure; cyclisation with HATU, HOAt and DIPEA
Conditions: whole synthesis; for final HPLC purity: Analytical HPLC; for final HPLC purity / isolated yield: scale of the general procedure 0.1 mmol

Substance | isolated mass | final HPLC purity | isolated yield (overall) | isolated yield
Cyclo-CLLF(CF3)VF(F) | 28.4 mg | 95% | 17.6% | 
Cyclo-CLLF(CF3)V-hF | 2.7 mg | 90% | 1.7% | 
Cyclo-CLLF(4-NO2)VY | 11.5 mg | 93% | 10.1% | 
Cyclo-CLLF(CF3)-hL-F(Br) | 33.3 mg | 99% |  | 18.6%
Cyclo-CLLF(CF3)V-Phg | 16.1 mg | 92% | 10.4% | 
Cyclo-CLLYVY | 25.1 mg | 99% |  | 
Cyclo-CLIF(CF)IF(Br) | 4.5 mg | 96% purity |  | 5.1%
Cyclo-CLLF(CF3)VY [Cyclo-CLLF(CF3)VY] | 29.4 mg | 90% | 18.2% | 
Cyclo-CLLF(CF3)-Abu-F(Br) | 32.9 mg | 99% |  | 38.5%
Cyclo-CLLF(CF3)VF(C) | 28.4 mg | 99% | 17.2% | 
Cyclo-CLLF(Br) VY | 12.1 mg | 90% | 7.4% | 
Cyclo-CLL-Phg-VY | 22.3 mg | 87% | 15.4% | 
Cyclo-CLLF(CF3)—N-LEU-F(Br) | 15.2 mg | 95% |  | 17.2%
Cyclo-CLLF(CF3)VF(NO2) | 20.0 mg | 99% |  | 12.0%
Cyclo-CLL-Nal-VY | 14.0 mg | 92% | 8.9% | 
Cyclo-CLLF(Cl)VY | 8.5 mg | 94% | 7.1 V % | 
Cyclo-CLLF(CF3)-Aib-F(Br) | 3.3 mg | 89% |  | 3.86%
Cyclo-CLLF(CF3)VF(Br) | 8.3 mg | 99% | 4.8% | 
Cyclo-CLLF(CF3)VF(I) | 19.8 mg | 91% | 10.8% | 

Substance | isolated mass | final HPLC purity | isolated yield (overall) | isolated yield
Cyclo-CL-Aib-F(CF3)IF(Br) | 24.7 mg | 96% purity |  | 28.9%
Cyclo-CLLF(CF3)—NV—F(Br) | 23.8 mg | 98% |  | 27.4%
Cyclo-CLLF(4-tBu)VY | 16.6 mg | 93% | 10.4% | 
Cyclo-CLLF(I)VY | 15.8 mg | 90% | 9.1% | 
Cyclo-CLL-hF-VY | 29.5 mg | 87% | 19.3% | 
Cyclo-CLLF(F)VY | 11.9 mg | 92° % | 10.9% | 
Cyclo-CLLF(CF3)LF(Br) | 25.9 mg | 99% |  | 29.4%
Cyclo-CLLF(CF3)VF(CF3) | 31.6 mg | 99% |  | 18.4%
Cyclo-CLL-dF-VY | 17.9 mg | 94% | 14.8% | 
Cyclo-CLLF(CF3)V-Cha | 16.2 mg | 97% | 10.2% | 
Cyclo-CLLF(CF3)VF | 62.7 mg | 95% | 39.7% | 
Cyclo-CLLF(CF3)V-4-Pal | 24.7 mg | 97% | 15.6% | 
Cyclo-CLVF(CF3)IF(Br) | 0.4 mg | 97% |  | 0.5%
Cyclo-CLL-PAL-VY | 16.2 mg | 89% | 15.1% | 
Cyclo-CLLF(CF3)VY(Me) | 9.2 mg | 99% | 5.6% | 
Cyclo-CLL-hCou-VY | 9.4 mg | 91% purity |  | 11.2%
Cyclo-CLL-Cha-VY | 3.0 mg | 99% | 2.9% | 
Cyclo-CLLF(CF3)V-Nal | 31.9 mg | 99% | 19.0% | 
Cyclo-CLLY(Me)VY | 3.7 mg | 90% | 3.3% | 
